In the assay the target is NRPE1-FLAG (largest subunit of nuclear RNA polymerase V) (Arabidopsis thaliana) (UniProt Q5D869). Description: cross-linking; Pol V complex held on dimethylated anti-FLAG beads, washed with 1 M NaCl lysis buffer, cross-linked on the beads with 5 mM BS3 in 30 mM HEPES pH 7.5, 150 mM NaCl, 1 h, room temperature; trypsin (FASP), LC MS/MS, Batch-Tag search.

By UniProt entry, the sequences of proteins in these tests, tags left out. Where a name states a change or a piece, a line headed by the entry shows the natural chain unless it says otherwise.
UniProt Q5D869: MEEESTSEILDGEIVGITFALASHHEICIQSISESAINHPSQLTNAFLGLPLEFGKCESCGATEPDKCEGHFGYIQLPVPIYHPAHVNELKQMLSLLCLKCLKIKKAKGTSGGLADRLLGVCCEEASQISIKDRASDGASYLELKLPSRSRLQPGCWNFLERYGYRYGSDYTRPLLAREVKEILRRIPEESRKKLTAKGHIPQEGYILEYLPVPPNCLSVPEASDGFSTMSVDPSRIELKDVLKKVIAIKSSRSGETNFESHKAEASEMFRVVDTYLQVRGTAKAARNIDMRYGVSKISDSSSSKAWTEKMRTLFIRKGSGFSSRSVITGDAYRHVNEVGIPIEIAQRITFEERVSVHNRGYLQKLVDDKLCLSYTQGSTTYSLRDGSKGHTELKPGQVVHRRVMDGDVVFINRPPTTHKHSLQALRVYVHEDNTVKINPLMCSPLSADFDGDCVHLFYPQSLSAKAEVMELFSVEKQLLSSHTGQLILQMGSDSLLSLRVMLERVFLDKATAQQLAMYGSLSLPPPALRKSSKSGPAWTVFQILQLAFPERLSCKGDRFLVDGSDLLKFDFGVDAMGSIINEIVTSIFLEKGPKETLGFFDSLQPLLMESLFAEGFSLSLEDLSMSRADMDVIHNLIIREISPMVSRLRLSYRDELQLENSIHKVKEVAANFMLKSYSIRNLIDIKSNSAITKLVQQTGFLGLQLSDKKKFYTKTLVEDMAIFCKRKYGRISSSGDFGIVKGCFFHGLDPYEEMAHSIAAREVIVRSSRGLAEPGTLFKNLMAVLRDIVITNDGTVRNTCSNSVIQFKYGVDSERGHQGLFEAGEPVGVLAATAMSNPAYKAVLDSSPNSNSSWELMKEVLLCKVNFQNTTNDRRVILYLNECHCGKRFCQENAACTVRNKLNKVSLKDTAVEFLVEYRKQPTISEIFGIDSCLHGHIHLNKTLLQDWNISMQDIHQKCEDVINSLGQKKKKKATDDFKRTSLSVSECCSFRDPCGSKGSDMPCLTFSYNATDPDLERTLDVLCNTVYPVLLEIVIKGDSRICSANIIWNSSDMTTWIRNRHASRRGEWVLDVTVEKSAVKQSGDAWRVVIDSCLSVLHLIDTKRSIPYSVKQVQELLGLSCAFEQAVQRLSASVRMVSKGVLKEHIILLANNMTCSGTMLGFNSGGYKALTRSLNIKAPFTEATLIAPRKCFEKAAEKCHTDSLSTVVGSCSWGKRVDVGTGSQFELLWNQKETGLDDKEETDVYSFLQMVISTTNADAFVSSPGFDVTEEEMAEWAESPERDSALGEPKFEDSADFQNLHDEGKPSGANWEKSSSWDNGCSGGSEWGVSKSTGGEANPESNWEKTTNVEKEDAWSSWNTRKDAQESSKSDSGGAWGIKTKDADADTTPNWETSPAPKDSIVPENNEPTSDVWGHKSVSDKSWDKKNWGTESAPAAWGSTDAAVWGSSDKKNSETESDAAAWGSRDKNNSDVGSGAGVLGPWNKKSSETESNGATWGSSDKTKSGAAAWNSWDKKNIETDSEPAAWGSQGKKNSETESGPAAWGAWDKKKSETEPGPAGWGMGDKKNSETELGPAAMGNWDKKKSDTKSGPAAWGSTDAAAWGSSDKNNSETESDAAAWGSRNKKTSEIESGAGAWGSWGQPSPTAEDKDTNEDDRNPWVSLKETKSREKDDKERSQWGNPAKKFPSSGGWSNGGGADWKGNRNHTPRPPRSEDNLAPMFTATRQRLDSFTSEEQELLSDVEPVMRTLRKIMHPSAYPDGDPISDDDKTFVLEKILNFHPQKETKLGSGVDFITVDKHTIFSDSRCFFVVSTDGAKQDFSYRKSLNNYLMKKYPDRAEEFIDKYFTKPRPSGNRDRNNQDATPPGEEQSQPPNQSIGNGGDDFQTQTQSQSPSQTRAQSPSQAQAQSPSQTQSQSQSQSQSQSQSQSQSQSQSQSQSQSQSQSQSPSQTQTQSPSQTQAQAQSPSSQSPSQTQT
UniProt Q9M1J2: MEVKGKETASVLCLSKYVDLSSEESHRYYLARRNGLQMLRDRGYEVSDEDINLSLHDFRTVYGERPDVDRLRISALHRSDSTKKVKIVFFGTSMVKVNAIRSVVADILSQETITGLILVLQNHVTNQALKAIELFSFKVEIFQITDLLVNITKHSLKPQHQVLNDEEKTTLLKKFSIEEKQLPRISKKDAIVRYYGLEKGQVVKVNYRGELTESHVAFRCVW

No constants are given. Whether binding was seen depends on the method and setting. In cells and extracts the contact can be indirect. Binding calls can cover weak binding; strength is not graded here.

For the substance NRPE5 (from UniProt Q9M1J2), the binding result was “binds”.

The record behind these values is PMC5320500.
